In the experiment the target is Flag-tagged wild-type von Hippel-Lindau tumour suppressor protein (pVHL), stably expressed in HCT116 (human) (UniProt P40337). The experiment is described as follows: affinity purification with mass spectrometry; Flag-pVHL stably expressed in HCT116 cultured with the proteasome inhibitor MG132; affinity purification from whole cell extracts, 4-20% SDS-PAGE, bands identified by LC-MS/MS.

Chains of the proteins cited; added tags and fusions are not shown.
UniProt P40337: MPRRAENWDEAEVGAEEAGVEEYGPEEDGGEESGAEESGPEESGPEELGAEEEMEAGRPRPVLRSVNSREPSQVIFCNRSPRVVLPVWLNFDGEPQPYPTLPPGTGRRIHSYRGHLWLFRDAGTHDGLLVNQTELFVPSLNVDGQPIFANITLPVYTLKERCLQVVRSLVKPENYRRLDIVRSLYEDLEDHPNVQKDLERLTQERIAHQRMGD

No constants are given. Whether binding was seen depends on the method and setting. In cells and extracts the contact can be indirect. A yes stands for co-enrichment or nearness to the bait. Other partners may have been found.

B1: fatty acid coenzyme A ligase 5, endogenous in HCT116 (enzyme, UniProt Q9ULC5 1-683)
chain: MLFIFNFLFSPLPTPALICILTFGAAIFLWLITRPQPVLPLLDLNNQSVGIEGGARKGVSQKNNDLTSCCFSDAKTMYEVFQRGLAVSDNGPCLGYRKPNQPYRWLSYKQVSDRAEYLGSCLLHKGYKSSPDQFVGIFAQNRPEWIISELACYTYSMVAVPLYDTLGPEAIVHIVNKADIAMVICDTPQKALVLIGNVEKGFTPSLKVIILMDPFDDDLKQRGEKSGIEILSLYDAENLGKEHFRKPVPPSPEDLSVICFTSGTTGDPKGAMITHQNIVSNAAAFLKCVEHAYEPTPDDVAISYLPLAHMFERIVQAVVYSCGARVGFFQGDIRLLADDMKTLKPTLFPAVPRLLNRIYDKVQNEAKTPLKKFLLKLAVSSKFKELQKGIIRHDSFWDKLIFAKIQDSLGGRVRVIVTGAAPMSTSVMTFFRAAMGCQVYEAYGQTECTGGCTFTLPGDWTSGHVGVPLACNYVKLEDVADMNYFTVNNEGEVCIKGTNVFKGYLKDPEKTQEALDSDGWLHTGDIGRWLPNGTLKIIDRKKNIFKLAQGEYIAPEKIENIYNRSQPVLQIFVHGESLRSSLVGVVVPDTDVLPSFAAKLGVKGSFEELCQNQVVREAILEDLQKIGKESGLKTFEQVKAIFLHPEPFSIENGLLTPTLKAKRGELSKYFRTQIDSLYEHIQD
As to B1, the binding entry was “binds”.

Source of the values: PMC5543055.
